Results from the supplement of paper PMC10849652.
This is one part of the list.

Amino acid sequences for entries named in this document (tags omitted). A change or cut given only in a name is not applied to a line headed by its entry.
UniProt Q53EU6: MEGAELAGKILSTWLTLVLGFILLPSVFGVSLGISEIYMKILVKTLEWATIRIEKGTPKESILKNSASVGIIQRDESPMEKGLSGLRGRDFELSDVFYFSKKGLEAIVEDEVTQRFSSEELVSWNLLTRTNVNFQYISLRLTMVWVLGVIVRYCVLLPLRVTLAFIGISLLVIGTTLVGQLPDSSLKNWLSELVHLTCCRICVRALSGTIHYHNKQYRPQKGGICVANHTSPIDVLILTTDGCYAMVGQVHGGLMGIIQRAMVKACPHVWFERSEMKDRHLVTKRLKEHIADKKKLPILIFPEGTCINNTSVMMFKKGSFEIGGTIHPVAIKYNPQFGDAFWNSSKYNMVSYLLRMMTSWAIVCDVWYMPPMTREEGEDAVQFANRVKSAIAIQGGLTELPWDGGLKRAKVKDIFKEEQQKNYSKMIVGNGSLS
UniProt P32189: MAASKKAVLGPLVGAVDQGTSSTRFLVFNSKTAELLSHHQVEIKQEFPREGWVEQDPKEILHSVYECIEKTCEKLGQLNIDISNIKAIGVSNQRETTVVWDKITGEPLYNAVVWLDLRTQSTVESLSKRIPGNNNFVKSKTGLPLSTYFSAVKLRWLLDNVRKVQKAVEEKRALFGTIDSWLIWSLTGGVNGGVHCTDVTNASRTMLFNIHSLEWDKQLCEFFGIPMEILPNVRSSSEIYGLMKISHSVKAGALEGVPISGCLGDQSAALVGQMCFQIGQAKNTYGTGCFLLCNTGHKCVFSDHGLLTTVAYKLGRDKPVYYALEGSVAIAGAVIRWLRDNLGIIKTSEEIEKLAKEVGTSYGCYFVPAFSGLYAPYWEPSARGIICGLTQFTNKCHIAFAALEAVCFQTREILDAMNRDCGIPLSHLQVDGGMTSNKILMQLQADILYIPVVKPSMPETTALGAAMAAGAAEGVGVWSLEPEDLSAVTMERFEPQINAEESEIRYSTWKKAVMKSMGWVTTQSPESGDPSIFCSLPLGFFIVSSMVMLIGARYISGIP
UniProt Q8N954: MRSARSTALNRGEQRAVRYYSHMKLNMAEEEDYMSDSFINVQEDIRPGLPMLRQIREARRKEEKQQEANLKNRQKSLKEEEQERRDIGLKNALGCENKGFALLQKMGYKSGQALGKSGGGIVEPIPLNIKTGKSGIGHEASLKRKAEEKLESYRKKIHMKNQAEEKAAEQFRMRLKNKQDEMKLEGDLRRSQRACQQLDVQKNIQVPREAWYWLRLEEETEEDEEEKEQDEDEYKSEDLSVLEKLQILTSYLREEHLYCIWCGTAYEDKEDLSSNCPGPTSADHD
UniProt Q8IXQ4: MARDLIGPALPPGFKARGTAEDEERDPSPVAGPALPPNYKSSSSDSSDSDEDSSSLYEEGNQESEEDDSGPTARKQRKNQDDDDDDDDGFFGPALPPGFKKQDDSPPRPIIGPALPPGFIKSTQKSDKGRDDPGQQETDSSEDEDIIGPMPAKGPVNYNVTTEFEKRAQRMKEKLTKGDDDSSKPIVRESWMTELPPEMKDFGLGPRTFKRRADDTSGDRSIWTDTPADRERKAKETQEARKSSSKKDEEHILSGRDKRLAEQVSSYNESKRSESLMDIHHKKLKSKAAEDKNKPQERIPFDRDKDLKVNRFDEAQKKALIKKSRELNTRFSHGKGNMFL
UniProt Q9HAV0, whole entry, looked up: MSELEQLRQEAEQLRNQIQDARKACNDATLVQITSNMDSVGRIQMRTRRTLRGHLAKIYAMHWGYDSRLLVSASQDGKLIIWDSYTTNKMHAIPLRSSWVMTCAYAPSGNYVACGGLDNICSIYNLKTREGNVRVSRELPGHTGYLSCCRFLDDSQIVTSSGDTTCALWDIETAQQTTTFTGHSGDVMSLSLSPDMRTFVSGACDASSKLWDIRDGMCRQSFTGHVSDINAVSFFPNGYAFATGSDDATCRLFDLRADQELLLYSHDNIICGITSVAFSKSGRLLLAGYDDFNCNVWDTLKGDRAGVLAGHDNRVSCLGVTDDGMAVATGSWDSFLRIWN
UniProt Q9NQX3: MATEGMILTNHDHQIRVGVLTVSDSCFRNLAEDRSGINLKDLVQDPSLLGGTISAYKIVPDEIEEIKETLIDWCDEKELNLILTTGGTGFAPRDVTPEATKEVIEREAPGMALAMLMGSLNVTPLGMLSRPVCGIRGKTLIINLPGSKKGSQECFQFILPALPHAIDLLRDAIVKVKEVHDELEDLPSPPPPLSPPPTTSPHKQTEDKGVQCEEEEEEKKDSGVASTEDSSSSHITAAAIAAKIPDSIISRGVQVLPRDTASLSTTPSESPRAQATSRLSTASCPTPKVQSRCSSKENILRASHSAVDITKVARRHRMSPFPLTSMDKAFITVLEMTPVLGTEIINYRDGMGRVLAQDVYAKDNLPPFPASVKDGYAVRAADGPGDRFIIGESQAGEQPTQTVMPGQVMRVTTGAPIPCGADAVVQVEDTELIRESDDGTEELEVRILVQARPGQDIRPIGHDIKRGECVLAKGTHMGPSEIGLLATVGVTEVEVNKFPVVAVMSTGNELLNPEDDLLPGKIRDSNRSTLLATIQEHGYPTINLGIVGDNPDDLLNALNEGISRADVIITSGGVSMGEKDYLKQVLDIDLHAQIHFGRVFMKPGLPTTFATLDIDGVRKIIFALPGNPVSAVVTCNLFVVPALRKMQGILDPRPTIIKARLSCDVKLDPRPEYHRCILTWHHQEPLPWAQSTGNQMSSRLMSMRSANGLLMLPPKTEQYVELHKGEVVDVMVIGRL
UniProt O75496: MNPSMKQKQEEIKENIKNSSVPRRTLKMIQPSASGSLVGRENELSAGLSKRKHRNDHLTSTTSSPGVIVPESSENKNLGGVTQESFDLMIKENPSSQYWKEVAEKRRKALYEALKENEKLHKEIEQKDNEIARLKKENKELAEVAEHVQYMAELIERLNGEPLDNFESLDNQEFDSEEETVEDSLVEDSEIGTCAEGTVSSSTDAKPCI
UniProt Q9BRT9, whole entry, looked up: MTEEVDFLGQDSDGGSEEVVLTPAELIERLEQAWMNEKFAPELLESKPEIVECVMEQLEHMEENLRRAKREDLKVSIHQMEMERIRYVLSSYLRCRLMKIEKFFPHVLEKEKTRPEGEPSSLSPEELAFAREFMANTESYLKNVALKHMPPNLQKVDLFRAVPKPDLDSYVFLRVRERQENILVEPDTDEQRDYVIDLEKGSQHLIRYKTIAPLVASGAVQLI
UniProt Q86SX6: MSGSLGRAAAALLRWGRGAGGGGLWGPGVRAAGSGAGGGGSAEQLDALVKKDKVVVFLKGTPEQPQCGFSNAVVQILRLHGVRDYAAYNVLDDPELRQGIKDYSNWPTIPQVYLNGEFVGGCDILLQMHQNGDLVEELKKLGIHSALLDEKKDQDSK
UniProt Q9BRX5: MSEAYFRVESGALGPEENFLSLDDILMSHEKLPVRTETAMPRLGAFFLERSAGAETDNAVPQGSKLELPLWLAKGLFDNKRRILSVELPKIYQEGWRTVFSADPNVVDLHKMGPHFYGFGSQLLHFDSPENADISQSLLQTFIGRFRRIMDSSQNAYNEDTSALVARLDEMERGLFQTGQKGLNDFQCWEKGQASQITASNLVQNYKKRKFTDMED
UniProt Q8TBA6: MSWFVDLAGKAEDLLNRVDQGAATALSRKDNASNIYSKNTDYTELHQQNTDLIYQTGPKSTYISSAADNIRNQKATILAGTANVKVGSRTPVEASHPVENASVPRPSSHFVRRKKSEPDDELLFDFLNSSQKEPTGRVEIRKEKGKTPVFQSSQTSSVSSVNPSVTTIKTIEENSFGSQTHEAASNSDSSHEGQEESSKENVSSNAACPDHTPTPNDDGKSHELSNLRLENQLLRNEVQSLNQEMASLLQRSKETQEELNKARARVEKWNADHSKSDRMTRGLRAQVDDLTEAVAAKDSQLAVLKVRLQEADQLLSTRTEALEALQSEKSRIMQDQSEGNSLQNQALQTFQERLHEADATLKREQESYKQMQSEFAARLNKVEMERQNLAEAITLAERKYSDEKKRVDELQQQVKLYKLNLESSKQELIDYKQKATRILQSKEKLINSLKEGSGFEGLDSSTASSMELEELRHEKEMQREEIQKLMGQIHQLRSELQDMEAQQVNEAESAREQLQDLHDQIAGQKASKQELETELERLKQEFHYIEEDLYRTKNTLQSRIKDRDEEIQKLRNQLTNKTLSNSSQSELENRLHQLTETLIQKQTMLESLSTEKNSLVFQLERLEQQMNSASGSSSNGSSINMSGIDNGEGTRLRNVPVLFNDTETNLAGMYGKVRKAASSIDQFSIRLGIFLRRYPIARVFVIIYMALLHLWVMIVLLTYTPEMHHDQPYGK
UniProt Q9Y223: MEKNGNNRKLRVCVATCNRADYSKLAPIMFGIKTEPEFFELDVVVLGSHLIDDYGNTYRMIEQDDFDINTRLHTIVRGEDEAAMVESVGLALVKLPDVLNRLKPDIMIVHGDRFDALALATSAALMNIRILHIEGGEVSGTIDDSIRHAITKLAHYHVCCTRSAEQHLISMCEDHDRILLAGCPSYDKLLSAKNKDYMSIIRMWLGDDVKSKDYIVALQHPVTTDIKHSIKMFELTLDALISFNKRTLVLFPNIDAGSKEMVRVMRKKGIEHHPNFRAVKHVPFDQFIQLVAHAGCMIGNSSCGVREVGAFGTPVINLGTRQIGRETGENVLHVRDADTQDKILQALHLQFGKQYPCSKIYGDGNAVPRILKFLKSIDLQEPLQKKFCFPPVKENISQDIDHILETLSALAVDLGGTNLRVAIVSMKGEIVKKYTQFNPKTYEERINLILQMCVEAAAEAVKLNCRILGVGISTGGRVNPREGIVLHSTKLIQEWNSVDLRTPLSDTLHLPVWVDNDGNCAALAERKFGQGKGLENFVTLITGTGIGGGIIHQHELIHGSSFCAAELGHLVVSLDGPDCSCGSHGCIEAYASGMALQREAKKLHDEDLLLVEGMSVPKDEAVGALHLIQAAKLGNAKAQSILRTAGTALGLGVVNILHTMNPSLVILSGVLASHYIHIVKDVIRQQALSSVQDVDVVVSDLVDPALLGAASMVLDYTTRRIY
UniProt Q9HC38: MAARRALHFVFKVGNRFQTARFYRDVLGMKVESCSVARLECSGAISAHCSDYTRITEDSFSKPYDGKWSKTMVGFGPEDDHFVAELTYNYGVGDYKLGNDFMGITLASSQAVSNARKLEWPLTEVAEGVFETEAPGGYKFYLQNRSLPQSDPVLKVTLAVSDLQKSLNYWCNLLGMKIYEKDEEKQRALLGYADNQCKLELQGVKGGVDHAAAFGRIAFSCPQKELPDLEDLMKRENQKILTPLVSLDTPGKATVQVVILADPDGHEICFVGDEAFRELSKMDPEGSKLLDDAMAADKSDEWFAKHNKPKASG
UniProt Q9UBQ7: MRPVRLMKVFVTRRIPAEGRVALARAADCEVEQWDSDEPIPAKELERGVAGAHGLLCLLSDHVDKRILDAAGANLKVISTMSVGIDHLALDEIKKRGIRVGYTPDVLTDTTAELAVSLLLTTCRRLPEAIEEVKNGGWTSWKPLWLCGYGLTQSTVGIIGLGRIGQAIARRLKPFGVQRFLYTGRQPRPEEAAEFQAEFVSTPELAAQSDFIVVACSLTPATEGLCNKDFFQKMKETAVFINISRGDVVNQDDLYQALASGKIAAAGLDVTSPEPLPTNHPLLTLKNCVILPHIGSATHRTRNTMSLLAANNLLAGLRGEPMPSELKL
UniProt Q9UHW5, whole entry, looked up: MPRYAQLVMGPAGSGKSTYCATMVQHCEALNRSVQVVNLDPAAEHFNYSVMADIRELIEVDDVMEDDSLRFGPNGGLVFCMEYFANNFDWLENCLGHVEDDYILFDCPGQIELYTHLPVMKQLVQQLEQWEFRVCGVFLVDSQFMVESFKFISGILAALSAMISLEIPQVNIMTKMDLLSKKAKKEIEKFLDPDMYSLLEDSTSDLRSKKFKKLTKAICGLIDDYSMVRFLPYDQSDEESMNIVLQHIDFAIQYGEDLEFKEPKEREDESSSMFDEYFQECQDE
UniProt Q9NS18: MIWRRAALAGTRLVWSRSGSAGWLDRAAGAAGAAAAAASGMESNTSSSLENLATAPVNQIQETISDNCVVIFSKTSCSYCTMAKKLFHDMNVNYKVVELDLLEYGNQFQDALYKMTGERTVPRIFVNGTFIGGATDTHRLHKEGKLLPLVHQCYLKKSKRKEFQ
UniProt Q12849: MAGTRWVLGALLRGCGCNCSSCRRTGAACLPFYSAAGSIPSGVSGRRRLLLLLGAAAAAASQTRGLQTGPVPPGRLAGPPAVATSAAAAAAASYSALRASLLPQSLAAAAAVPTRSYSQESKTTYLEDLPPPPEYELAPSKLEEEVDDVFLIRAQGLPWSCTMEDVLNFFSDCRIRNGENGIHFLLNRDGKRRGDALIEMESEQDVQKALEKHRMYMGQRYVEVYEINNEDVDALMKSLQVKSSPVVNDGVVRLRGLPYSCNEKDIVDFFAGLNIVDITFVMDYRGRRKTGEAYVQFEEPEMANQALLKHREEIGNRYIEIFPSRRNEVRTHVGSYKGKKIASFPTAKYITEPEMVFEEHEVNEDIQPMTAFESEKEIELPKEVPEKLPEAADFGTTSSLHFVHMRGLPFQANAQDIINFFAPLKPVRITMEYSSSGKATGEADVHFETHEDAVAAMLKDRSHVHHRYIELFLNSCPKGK

Compound: CN(CCOC1=CC=C(C=C1)C[C@H]2C(=O)NC(=O)S2)C3=CC=CC=N3 (racemic) [rosiglitazone]
Test: log2 fold change, soluble protein after heating vs DMSO (PISA); higher = thermal stabilisation; K562 cells, 10 uM, 30 min; active = over 0.2 and 3.5 SD of the protein, either way, in both replicates (recomputed)
Summary of the method: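 K562 cells at 2×10^6 cells/mL were given 10 μM compound for 30 min. Aliquots then went through 3 min of heating across 48°C-58°C, were pooled, and were extracted in PBS with 0.5% NP-40 at 4°C, and the supernatant after 21,000xg for 90 min was quantified by TMTpro 16plex LC-MS/MS with channel sums equalised. Thermal stability relative to control samples, from duplicates, is given as log2 fold change.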

log2 fold change, inactive:
GPAT3 (UniProt Q53EU6) 0.032, GK (UniProt P32189) -0.015, GPATCH11 (UniProt Q8N954) -0.012, GNB1 (UniProt P62873) -0.017, GINS1 (UniProt Q14691) 0.007, GNAI2 isoform 4 (UniProt P04899) -0.039, GPALPP1 (UniProt Q8IXQ4) 0.006, GMPPB isoform 2 (UniProt Q9Y5P6) 0.035, GNB4 (UniProt Q9HAV0) -0.064, GPHN isoform 2 (UniProt Q9NQX3) -0.015, GIPC1 (UniProt O14908) 0.011, GNB1L (UniProt Q9BYB4) -0.005, GMNN (UniProt O75496) -0.006, GMDS (UniProt O60547) 0.011, GPS1 isoform 7 (UniProt Q13098) 0.013, GINS4 (UniProt Q9BRT9) 0.029, GM2A (UniProt P17900) -0.012, GLRX5 (UniProt Q86SX6) -0.016, GINS3 (UniProt Q9BRX5) 0.059, GNPDA1 (UniProt P46926) -0.002, GPN1 isoform 5 (UniProt Q9HCN4) -0.036, GPR89A (UniProt B7ZAQ6) -0.004, GOLGA5 (UniProt Q8TBA6) 0.014, GNE isoform 2 (UniProt Q9Y223) 0.027, GNPNAT1 (UniProt Q96EK6) -0.008, GLOD4 isoform 2 (UniProt Q9HC38) 0.065, GRHPR (UniProt Q9UBQ7) -0.006, GPN3 isoform 2 (UniProt Q9UHW5) 0.026, GLRX2 isoform 2 (UniProt Q9NS18) 0.011, GMPR2 isoform 2 (UniProt Q9P2T1) -0.013, GRSF1 (UniProt Q12849) -0.037, GRB2 (UniProt P62993) 0.05
